Measurements: article PMC7819943, “Rice protein-binding microarrays: a tool to detect cis-acting elements near promoter regions in rice”
This is one part of the list.

The chains behind the UniProt entries cited, without tags or fusion partners.
UniProt Q0JBA9, entry or part of it: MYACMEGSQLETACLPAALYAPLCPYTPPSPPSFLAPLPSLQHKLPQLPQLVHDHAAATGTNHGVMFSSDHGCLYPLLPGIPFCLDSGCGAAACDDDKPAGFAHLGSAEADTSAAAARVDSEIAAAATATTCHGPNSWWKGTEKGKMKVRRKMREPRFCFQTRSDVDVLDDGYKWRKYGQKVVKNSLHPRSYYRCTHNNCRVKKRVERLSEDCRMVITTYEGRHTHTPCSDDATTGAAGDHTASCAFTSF

The sequences below were run against OsWRKY34 (Oryza sativa, UniProt Q0JBA9 1-250) (assay: protein-binding microarray (RPBM); PBS, 2% BSA, 51.3 ng/ul salmon testes DNA, 50 uM zinc acetate, 200 nM TF, 25 C, 1 h; high values mean tight binding). Conditions: protein: recombinant; tags: N-terminal polyhistidine and DsRed monomer fusion (pET32a); label: CyDye5-dUTP incorporated in the synthesized complementary strand; 3' TTTTT single-stranded linker to array surface; dsDNA, one strand shown.
Method in brief: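 Ni–NTA purification followed expression in E. coli BL21-CodonPlus of transcription factors fused N-terminally to a polyhistidine tag and DsRed. At 200 nM in PBS with 2% BSA, salmon testes DNA and 50 µM zinc acetate, the protein was incubated for 1 h at 25 °C with a custom Agilent array that had been primer-extended with Cy5-dUTP and blocked with 2% BSA. After washing, the array was read on an Axon 4000B scanner. The binding signal is per-feature fluorescence intensity in arbitrary units.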

Q: For “GCTTCCGTACAACTGCTTCAACGTGTCCGTGTTACACAATCGGAGTCACCTAGTGCAG”, which binding signal is on record?
A: The binding signal was 8670 fluorescence intensity (a.u.).

Q: “AGACACCTTTGAAGCTGTCCTGTGTCGGCAGCGTTGCGTCCGGAGTCACCTAGTGCAG” was tested. Which binding signal did it give?
A: Its binding signal is 8470 fluorescence intensity (a.u.).

Q: With “GCCATCTCCTTTCTCGCGCCGTCTCATCTCATCTTCTTCGCGGAGTCACCTAGTGCAG” as the sequence, how does the binding signal read?
A: The binding signal was 10900 fluorescence intensity (a.u.).

Q: With “CTCTTTTTCATATTGTTATCTTGGGATCTGATTTTTGTCCCGGAGTCACCTAGTGCAG” as the sequence, how does the binding signal read?
A: Its binding signal is 9170 fluorescence intensity (a.u.).

Q: How did the binding signal turn out when “TATGCCGCCTATCATCATCATTCCACTAGTAGCAAAACGGCGGAGTCACCTAGTGCAG” was run?
A: Its binding signal is 8200 fluorescence intensity (a.u.).

Q: For “GGTTCCTGCTGTATTTTTCTCTTGACTGTCTTCTCTCTCCCGGAGTCACCTAGTGCAG”, which binding signal is on record?
A: The binding signal was 14000 fluorescence intensity (a.u.).

Q: For “GTCGTGCCGGCGCGTGTTGCTTGCTATTGGGGTCTTACTTCGGAGTCACCTAGTGCAG”, which binding signal is on record?
A: The binding signal was 12000 fluorescence intensity (a.u.).

Q: With “GTATGCATTATTATGCTGATTAATTTGGCCTGGTTATTTGCGGAGTCACCTAGTGCAG” as the sequence, how does the binding signal read?
A: Its binding signal is 8160 fluorescence intensity (a.u.).

Q: Which binding signal does the source give for “AAAAATAAACTTGATTGTGATGTGGGCTGGGCCGGAAGTACGGAGTCACCTAGTGCAG” here?
A: The binding signal was 8270 fluorescence intensity (a.u.).

Q: With “TAGCTTCTATAACTGCAAGATTTTCAATCTGTCACCTGATCGGAGTCACCTAGTGCAG” as the sequence, how does the binding signal read?
A: Its binding signal is 11500 fluorescence intensity (a.u.).

Q: With “GCGGCCTCCAATTCGAACGCCCCAGTTGCTCGCGCCGCCGCGGAGTCACCTAGTGCAG” as the sequence, how does the binding signal read?
A: Its binding signal is 10000 fluorescence intensity (a.u.).

Q: For “CAGCCATGTCAGCCAGGTTAGTCAATCCACTGTCAATTTCCGGAGTCACCTAGTGCAG”, which binding signal is on record?
A: The binding signal was 8560 fluorescence intensity (a.u.).

Q: For “TGTTCGCGTCCATCGTTGACTTTTTCAACGCCATGCACGCCGGAGTCACCTAGTGCAG”, which binding signal is on record?
A: Its binding signal is 30900 fluorescence intensity (a.u.).

Q: Which binding signal does the source give for “ATCCAAGCCGTCCATCTTCACCCGTCACTGTCACTCGCCACGGAGTCACCTAGTGCAG” here?
A: Its binding signal is 16900 fluorescence intensity (a.u.).

Q: “CTTTAGGTGTTGCGGTCATACTTGTCAACTTGTCACAAAACGGAGTCACCTAGTGCAG” was tested. Which binding signal did it give?
A: The binding signal was 8690 fluorescence intensity (a.u.).

Q: “AGTGCATATGAATGTGTGTGTGTGTTTTTTTTGCGGGGAACGGAGTCACCTAGTGCAG” was tested. Which binding signal did it give?
A: Its binding signal is 10700 fluorescence intensity (a.u.).

Q: How did the binding signal turn out when “TCTCTCCCTTGTCCTCTGTCTGAATTGCCCAGCAGGTCCACGGAGTCACCTAGTGCAG” was run?
A: The binding signal was 8780 fluorescence intensity (a.u.).

Q: With “ATCCACAGCTGACGCCCCGATGCTCCACCACCACTCCAGCCGGAGTCACCTAGTGCAG” as the sequence, how does the binding signal read?
A: Its binding signal is 9350 fluorescence intensity (a.u.).

Q: How did the binding signal turn out when “ACCTACCACCACCTTACCCTCTCGCTGACATCCCGGCCCCCGGAGTCACCTAGTGCAG” was run?
A: Its binding signal is 12000 fluorescence intensity (a.u.).

Q: How did the binding signal turn out when “ACTTGTCACATCACATCATCTTTCATTCATGTAACAACTTCGGAGTCACCTAGTGCAG” was run?
A: The binding signal was 9290 fluorescence intensity (a.u.).

Q: How did the binding signal turn out when “TGTTTTTTTCCTATATTTAAATAGTGTGTTTTTCTTTTCTCGGAGTCACCTAGTGCAG” was run?
A: The binding signal was 12700 fluorescence intensity (a.u.).

Q: For “TCACTTCACAGATTCACACACACACACACACACACTCTCTCGGAGTCACCTAGTGCAG”, which binding signal is on record?
A: The binding signal was 8440 fluorescence intensity (a.u.).

Q: For “CATTCTTTCGTTTGCGTGCGTGACTCTCCAAGTACTCCCTCGGAGTCACCTAGTGCAG”, which binding signal is on record?
A: The binding signal was 9220 fluorescence intensity (a.u.).

Q: With “TCCACTATGACTTATTTTGGTGTATCCCTACTTTTTAATCCGGAGTCACCTAGTGCAG” as the sequence, how does the binding signal read?
A: Its binding signal is 9280 fluorescence intensity (a.u.).

Q: For “CTTTGCTTACCATTGACTCCTTTTTCCATCCAAGCCTAAGCGGAGTCACCTAGTGCAG”, which binding signal is on record?
A: Its binding signal is 10300 fluorescence intensity (a.u.).

Q: Which binding signal does the source give for “AGTCATTGCCATTGATCCTATGTCCTCTATTGATCTTTCTCGGAGTCACCTAGTGCAG” here?
A: Its binding signal is 11100 fluorescence intensity (a.u.).

Q: How did the binding signal turn out when “GGCCGCACCACCATTCCACCCGTCCACCTCGTTGCCTCCGCGGAGTCACCTAGTGCAG” was run?
A: The binding signal was 8690 fluorescence intensity (a.u.).

Q: With “TCCTTCATGCATCCATTGTACAAAGGTCGTTATTGAGAAACGGAGTCACCTAGTGCAG” as the sequence, how does the binding signal read?
A: Its binding signal is 9060 fluorescence intensity (a.u.).

Q: How did the binding signal turn out when “CTCGTGCTGCTTCCACCCCTCCCTCGTCGCCTTGCCAGTTCGGAGTCACCTAGTGCAG” was run?
A: The binding signal was 9440 fluorescence intensity (a.u.).

Q: Which binding signal does the source give for “CCCAACGCAAGTTCTTCCTGTCGCTTCACCTTCACGCAGCCGGAGTCACCTAGTGCAG” here?
A: The binding signal was 9940 fluorescence intensity (a.u.).

Q: “CTCATCTTGTCCTCTCTTTCTCCGTCGTCTTCCTTTACTGCGGAGTCACCTAGTGCAG” was tested. Which binding signal did it give?
A: Its binding signal is 8450 fluorescence intensity (a.u.).

Q: How did the binding signal turn out when “TTTTCTTATTTAGATTCAAATTTTACCTCGGTTTTATGTTCGGAGTCACCTAGTGCAG” was run?
A: The binding signal was 8540 fluorescence intensity (a.u.).

Q: Which binding signal does the source give for “ATCTGTAGCCCGCTGTTTTTCTCTCTCATTTTTTATCTCACGGAGTCACCTAGTGCAG” here?
A: Its binding signal is 9840 fluorescence intensity (a.u.).

Q: “AGGGTTTTGTTTTTTTAGATTTTATTTTTTTCGGCTTTTTCGGAGTCACCTAGTGCAG” was tested. Which binding signal did it give?
A: Its binding signal is 10200 fluorescence intensity (a.u.).

Q: For “GTCATTCATTTGGGAAGCACCCGTTTGGCCAGTTCTTTTCCGGAGTCACCTAGTGCAG”, which binding signal is on record?
A: The binding signal was 10500 fluorescence intensity (a.u.).

Q: How did the binding signal turn out when “ATCACCCTGATTATCGTTTCTAAGCCATATTTAGCAAACTCGGAGTCACCTAGTGCAG” was run?
A: The binding signal was 8650 fluorescence intensity (a.u.).

Q: With “ACTTTTTTGGTTTGTTCAGGCTTTGGAATAGGTTTTTAGGCGGAGTCACCTAGTGCAG” as the sequence, how does the binding signal read?
A: The binding signal was 8140 fluorescence intensity (a.u.).

Q: “CCACTTCGTAGTCGTAGTTCAGCATATCAGCCACTCTTTCCGGAGTCACCTAGTGCAG” was tested. Which binding signal did it give?
A: The binding signal was 9050 fluorescence intensity (a.u.).

Q: Which binding signal does the source give for “TATTCACGCTGTAGATACTGTTATGTTCCAATTGTCACGGCGGAGTCACCTAGTGCAG” here?
A: Its binding signal is 8700 fluorescence intensity (a.u.).

Q: “TTTCTATATTGCATATCCTCCTAAAATATCTCGCGGTTGACGGAGTCACCTAGTGCAG” was tested. Which binding signal did it give?
A: Its binding signal is 8350 fluorescence intensity (a.u.).

Q: With “TGCGAGTTCGTCGCCGCCTCCGCCGATCTCCATCAGGCGACGGAGTCACCTAGTGCAG” as the sequence, how does the binding signal read?
A: The binding signal was 9610 fluorescence intensity (a.u.).

Q: With “GGTCGCTGCCGCTATCAACACCAACAAACACCGCGCCTCGCGGAGTCACCTAGTGCAG” as the sequence, how does the binding signal read?
A: Its binding signal is 9850 fluorescence intensity (a.u.).
